Measurements taken from article PMC5522078, “Discovery and characterization of small molecules targeting the DNA-binding ETS domain of ERG in prostate cancer” (Oncotarget, 2017).
For at least one entry, the source does not settle the construct or the ends of the probe. A weaker result is weaker than the reference pair of the same experiment. For some of these results: Protein sequences can lack the tags named with them. For some of these results: Results from cells or extracts need not show a direct contact. For some of these results: At least one verdict rests on a figure or table, not on a statement of the authors.

Columns and labels:
[1] = system: ERG in VCaP nuclear extract; test: EMSA; settings: EMSA: protein stored in 20 mM sodium phosphate, 200 mM NaCl, 2 mM DTT, 0.1 mM EDTA, pH 6.5, reaction with 3% glycerol, 0.2 mg/mL BSA, 1 nM dsDNA, room temperature 1 h, protein in an extract, label: Alexa-488
ERG-ETS domain = target: T1, ERG-ETS domain (UniProt P11308); test: EMSA; settings: VPC-18005 2 uM-8 mM, dose-dependent disruption (compound KI ~250 uM), 4 nM protein, 1 nM DNA; EMSA: protein stored in 20 mM sodium phosphate, 200 mM NaCl, 2 mM DTT, 0.1 mM EDTA, pH 6.5; reaction with 3% glycerol, 0.2 mg/mL BSA, 1 nM dsDNA, room temperature 1 h; recombinant protein; residues 307-400; protein details: His6 removed by thrombin; label: Alexa-488
T1 sequence (looked up): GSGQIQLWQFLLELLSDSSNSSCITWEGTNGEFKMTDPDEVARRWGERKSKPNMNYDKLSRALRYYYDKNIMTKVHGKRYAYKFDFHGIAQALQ

## CGGCCAAGCCGGAAGTGAGTG (double strand) [ETS consensus GGAA probe]
[1]; VCaP nuclear extract, no compound
  binding result: binds
[1]; VPC-18005 4 uM-8 mM, 55 ng/ul nuclear extract
  binding result: binds more weakly
[1]; YK-4-279 4 uM-8 mM, no disruption, 55 ng/ul nuclear extract
  binding result: binds
ERG-ETS domain
  binding result: binds more weakly
